From US6890969B2, “Polymer emulsion preservation using cationic compounds” (Air Products Polymers, L.P., priority 2000, dated 2005)
Where a name gives a salt, the structure may show the parent alone. For at least one compound, name, drawing or mass did not settle the structure.

How the values were obtained:
yeasts and molds = assay: Fungal biochallenge test with mixed yeast and mixed mold inocula, 28 days; format: cell-based; conditions: for Surface Fungal Growth: PVOH-stabilized VAE emulsion, 28 days at 25 °C, visual; for Growth on PDA: streak plated on potato dextrose agar after 28 days
GABL = GABL biochallenge test of preserved polymer emulsions (streak plate / RABIT), inoculations passed; format: cell-based, Gluconoacetobacter liquefaciens
Procedure: GABL Inoculum Preparation
A recently isolated culture of GABL was grown on potato dextrose agar slants by inoculating the agar surface. The potato dextrose agar slants were incubated for 48-72 hours at 25° C. After this incubation period, GABL cells were harvested using quarter strength Ringers solution to wash the GABL colonies off of the agar surface. The washings from each slant were combined into one sterile, Erlenmeyer flask. The number of slants and the amount of quarter strength Ringers solution used to wash off the GABL colonies was adjusted during the procedure to obtain a final microbial viable count in the range of 10^8-10^10 CFU/mL.
Rapid Automated Bacterial Impedance Technique (RABIT): supplied by Microbiology International, manufactured by Don Whitley Scientific, Ltd.
RABIT utilizes the principal of impedance microbiology to detect and assess microbial activity in a given sample. Using the RABIT, microbial metabolism is monitored by measuring the amount of carbon dioxide produced by actively respiring microorganisms. The electrodes in the RABIT test cells are partially covered with alkaline agar containing potassium hydroxide. As inoculated test samples are monitored on the RABIT, carbon dioxide produced from microbial metabolism is absorbed by the alkaline agar resulting in a change in conductivity. Conductivity is monitored with time and the time to reach a pre-specified rate of reduction in conductivity is termed the time to detection (TTD). Therefore, the shorter the TTD, the higher the number of microorganisms present. Failure can be defined as three successive decreases in conductivity equal to or greater than a pre-specified value (−10 microSiemens is recommended by the manufacturer) at any time during the 72 hour RABIT monitoring period. Alternatively, failure can be defined as a pre-specified total change in conductivity.
Biochallenge Test Procedure
Samples (50 g each) of each test emulsion containing a test antimicrobial agent were inoculated with 1.0 mL of the GABL inoculum. After mixing well, the samples were then placed in a 30° C. incubator. After 1, 2, and 6 days of incubation each sample was streak plated onto potato dextrose agar to assess the level of surviving GABL microorganisms. The potato dextrose agar plates were incubated at 25° C. for 48-72 hours before assessing the growth. On the seventh day of incubation, each test emulsion sample was inoculated again with a freshly prepared GABL inoculum, mixed well, then placed back into the incubator. […]
A small amount of a microbial nutrient was added to each emulsion test sample (50 g) containing a test antimicrobial agent. […] The indirect conductivity tubes were then placed into the RABIT incubator modules set at 30° C. and the conductivity changes monitored for up to 72 hours. […]

| Compound | Surface Fungal Growth (yeasts and molds; 75 ppm DGH) | Growth on PDA (yeasts and molds; 75 ppm DGH) | Surface Fungal Growth (yeasts and molds; 100 ppm DGH) | Growth on PDA (yeasts and molds; 100 ppm DGH) | protection against molds or yeasts (in words) (yeasts and molds; 200 ppm DGH in PVOH-stabilized VAE emulsion) | Surface Fungal Growth (yeasts and molds; 200 ppm DGH) | Growth on PDA (yeasts and molds; 200 ppm DGH) | preservative efficacy against GABL (in words) (GABL; VAE emulsion made with initiation systems such as persulfate/sodium formaldehyde sulfoxylate) | control of GABL growth (in words) (GABL; poly(vinyl alcohol)-stabilized VAE copolymer emulsions) | preservative efficacy against GABL (in words) (GABL; presence of substantial amounts of nonionic surfactant) | preservative efficacy against GABL (in words) (GABL; same dosage levels, VAE copolymer emulsions with substantial amounts of anionic comonomer or anionic surfactant) | Surface Fungal Growth (yeasts and molds; 300 ppm CPC) | Growth on PDA (yeasts and molds; 300 ppm CPC) |
| --- | --- | --- | --- | --- | --- | --- | --- | --- | --- | --- | --- | --- | --- |
| CCCCCCCCCCCCNC(=N)N [DGH, n-dodecylguanidine hydrochloride] | Dense Growth | Dense | Dense Growth | Dense | good protection | Moderate Growth | Very Slight | lessened | extremely robust and effective | reduced | no preservative efficacy | – | – |
| CCCCCCCCCCCCCCCC[n+]1ccccc1 [CPC, cetylpyridinium chloride, reference compound] | – | – | – | – | – | – | – | – | – | – | – | No Growth | No Growth |
